Data source: PubChem BioAssay AID1224826 (NIAID, 2016)
Screen: 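Regulators of Tlr4 signalling leading to Tnf-alpha expression in macrophages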 (primary screen). Cell system: RAW264.7 G9 macrophages from mouse bearing reporters for p65 (GFP) and the Tnf promoter (mCherry). Knock-down reagent: siRNA pool against mouse genes, 100 nM. Timing: 16 h of LPS stimulation, after 2 days of siRNA transfection. Challenge: bacterial lipopolysaccharide (Salmonella minnesota R595), 10 ng/ml. Measurement: 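Imaged Tnf reporter mCherry in nuclei, minus background, normalised per plate to the median and expressed as robust z-scores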. Reading the numbers: Tnf reporter robust z-score: higher = stronger Tnf promoter reporter signal after LPS. Call rule: 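Called active when robust z-score is at most -1.3, matching the median of the Tlr4 knock-down control, or over 3; control wells and wells with under 50 cells never active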. Calls: active = Tnf reporter clearly lowered or raised; inactive = no clear change in Tnf reporter.
In all, the deposit lists about 17,000 reagents; shown is an unselected part. About 1,110 of all reagents (6.6%) were called active. 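Active means lowered or raised reporter signal; replicate intensities are raw and not normalised per plate.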 Entries without a mark were called inactive. The numbers tell different reagents against one gene apart. Further read-outs or replicates are left out here. No sequences are given here.

Tnf reporter robust z-score | fewer than 50 cells in well | gene | pool no.
-0.99 | enough cells in well | Praf2 | 1
– | fewer than 50 cells per well; well left out of calls | Atf5 | 1
1.11 | enough cells in well | Mettl23 | 1
1.63 | enough cells in well | Angptl2 | 1
-0.92 | enough cells in well | Cldn18 | 1
– | fewer than 50 cells per well; well left out of calls | 1700012A03Rik | 1
-1.05 | enough cells in well | Cd99l2 | 1
-0.16 | enough cells in well | Ar | 1
1.42 | enough cells in well | C1qbp | 1
1.07 | enough cells in well | Tex13c3 | 1
-0.52 | enough cells in well | Lce1b | 1
-1.16 | enough cells in well | Fermt2 | 1
1.03 | enough cells in well | Tex15 | 1
-0.04 | enough cells in well | Xlr4b | 1
– | fewer than 50 cells per well; well left out of calls | Slc44a4 | 1
-0.84 | enough cells in well | Dtx3 | 1
-0.17 | enough cells in well | B4galt3 | 1
– | fewer than 50 cells per well; well left out of calls | Snrpa1 | 1
1.13 | enough cells in well | Frzb | 1
– | fewer than 50 cells per well; well left out of calls | Or7d10 | 1
0.79 | enough cells in well | Or7c70 | 1
1.14 | enough cells in well | Akap12 | 1
1.53 | enough cells in well | Fkbp9 | 1
2.4 | enough cells in well | Pirt | 1
-1.34 (active) | enough cells in well | Arf1 | 1
0.46 | enough cells in well | Msgn1 | 1
-2.1 (active) | enough cells in well | Kat7 | 1
-1.29 | enough cells in well | Ep300 | 1
-0.49 | enough cells in well | Micall2 | 1
1.32 | enough cells in well | Ralgps1 | 1
-1.25 | enough cells in well | Or1e25 | 1
-0.56 | enough cells in well | Sars1 | 1
0.72 | enough cells in well | Or2ag18 | 1
– | fewer than 50 cells per well; well left out of calls | Zfp524 | 1
-0.87 | enough cells in well | Or1o11 | 1
0.91 | enough cells in well | Aifm2 | 1
– | fewer than 50 cells per well; well left out of calls | Zc3h6 | 1
– | fewer than 50 cells per well; well left out of calls | Zc3h6 | 2
-0.71 | enough cells in well | Kir3dl2 | 1
0.81 | enough cells in well | Entrep2 | 1
1.3 | enough cells in well | Nrg3 | 1
-0.6 | enough cells in well | Nr2c1 | 1
-0.52 | enough cells in well | Fat4 | 1
-1.08 | enough cells in well | Fat4 | 2
– | fewer than 50 cells per well; well left out of calls | Ddhd1 | 1
0.75 | enough cells in well | Fmo5 | 1
-0.27 | enough cells in well | Or5af2 | 1
-0.09 | enough cells in well | Ctdp1 | 1
-0.87 | enough cells in well | Dnajc27 | 1
-0.48 | enough cells in well | Paxip1 | 1
-0.55 | enough cells in well | Pigk | 1
4.02 (active) | enough cells in well | Pigw | 1
-0.12 | enough cells in well | Foxg1 | 1
-0.44 | enough cells in well | Zdhhc4 | 1
2.49 | enough cells in well | Fchsd1 | 1
-0.19 | enough cells in well | Scgb2b26 | 1
0.53 | enough cells in well | Scgb2b26 | 2
-0.11 | enough cells in well | Ndufc1 | 1
0.21 | enough cells in well | Fmo4 | 1
-1.47 (active) | enough cells in well | Moxd2 | 1
-0.2 | enough cells in well | Usf1 | 1
0.16 | enough cells in well | Or52n5 | 1
– | fewer than 50 cells per well; well left out of calls | Unc93b1 | 1
0.4 | enough cells in well | Prl2c2 | 1
-0.03 | enough cells in well | Ptpn4 | 1
– | fewer than 50 cells per well; well left out of calls | Srp14 | 1
-1.02 | enough cells in well | C130070B15Rik | 1
0.25 | enough cells in well | Enc1 | 1
0.56 | enough cells in well | Cd79a | 1
2.89 | enough cells in well | Tmem100 | 1
0.27 | enough cells in well | Gng7 | 1
-1.5 (active) | enough cells in well | Hmgxb4 | 1
1.79 | enough cells in well | Rhpn1 | 1
– | fewer than 50 cells per well; well left out of calls | Cacna1h | 1
-1.5 (active) | enough cells in well | Clca1 | 1

Records above whose gene name starts with D or d:
Tnf reporter robust z-score | fewer than 50 cells in well | gene | pool no.
-0.84 | enough cells in well | Dtx3 | 1
– | fewer than 50 cells per well; well left out of calls | Ddhd1 | 1
-0.87 | enough cells in well | Dnajc27 | 1
